The test system of the assay is Candida albicans. The assay is described as follows: microbe, parasite or virus in culture. The note with it: ATCC 90028.

Among the data in ChEMBL document CHEMBL5120843, “Structure and Antimicrobial Activity of Rare Lactone Lipids from the Sooty Mold (Scorias spongiosa)” (J Nat Prod, 2022) are MIC values, retold here.

≈ marks a conversion by molar mass, not a printed value.

Consider `C[C@@H]1[C@H](O)[C@@H](C)/C=C/C=C/C=C/C=C/C=C/C=C/C=C/[C@H](O[C@@H]2O[C@H](C)[C@@H](O)[C@H](N)[C@@H]2O)C[C@@H]2O[C@](O)(C[C@@H](O)C[C@@H](O)[C@H](O)CC[C@@H](O)C[C@@H](O)CC(=O)O[C@H]1C)C[C@H](O)[C@H]2C(=O)O` [AMPHOTERICIN B], for which the MIC was 0.63 µg/mL (≈ 0.682 µM).
